Consider one sequence from publication PMC3791872, “Ciprofloxacin is an inhibitor of the Mcm2-7 replicative helicase” (Bioscience Reports, 2013).

For at least one entry, the source does not settle the construct or the ends of the probe. The comparison behind a weaker result is the experiment's own reference, which may not be listed here. At least one verdict was read from the data and is not stated in words by the source.

In data set [1] the test system is Mcm2-7. As to the kind of experiment: double filter binding. Conditions: 150 nM helicase hexamer, 4 nM ssDNA, 20 min inhibitor preincubation at 37 C, label: 5'-32P, single-stranded DNA.
The test system of data set [2] is Mcm467. The data set can be described thus: double filter binding. Conditions: 150 nM helicase hexamer, 4 nM ssDNA, 20 min inhibitor preincubation at 37 C, label: 5'-32P, single-stranded DNA.
[3] abbreviates: no inhibitor control (1% DMSO), 150 nM hexamer.

Consider “TGTCTAATCCCGAAAGGCCCTGCCACTGAAATCAACACCTAAAGCATTGA [oligo 826]”, for which the binding result is “binds more weakly” in data set [1] (1 mM MAL2-11b); “binds more weakly” in data set [1] (1 mM NEM); “binds more weakly” in data set [1] (1 mM Nbf); “binds” in data set [1] (setting [3]); “binds more weakly” in data set [2] (1 mM MAL2-11b); “binds more weakly” in data set [2] (1 mM NEM). Besides, the binding result in data set [2] (1 mM Nbf) was “binds more weakly”; in data set [2] (setting [3]), “binds”.
